According to the supplement of paper PMC12823440, “Inhibitors supercharge kinase turnover through native proteolytic circuits” (Nature, 2025):
The other results are listed elsewhere or left out. Hit calls seldom repeat between salt and free forms of one compound.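 In K562 cells expressing nanoluciferase-fused kinases, luminescence was recorded at 4 h intervals between 2 and 18 h, normalized as percent of control with DMSO at 100% and a positive control at 0%. A significant (2 sigma) signal drop marks a time point as decreased. The authors' rule for a hit is not shown and takes in more than the number of time points.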

Each compound was assayed against EGFR (UniProt P00533) (assay: kinase-Nluc reporter destabilization hit call (1 = scored as downregulated) (binary); higher = compound decreases kinase abundance). Conditions: K562; 2-18 h.

kinase-Nluc reporter destabilization hit call, inactive:
CC(C)Cn1ncc2cc(Oc3ccc(F)cc3F)c(C(=O)NCCN(C)C)cc21 [p38α inhibitor 1] (10 µM) 0
CNc1cc2c(Nc3cccc(Br)c3)ncnc2cn1 (10 µM) 0
CN1C(=O)[C@@H](NC(=O)c2cc(Cc3ccccc3)on2)COc2ccccc21 (10 µM) 0
CC(C1CC1)n1cnc2c(NCc3cccc(C(F)(F)F)c3)nc(NCCN(C)C)nc21 (centres undefined) (10 µM) 0
Cc1n[nH]c2ncc(C(=O)N3CCC[C@H]3c3ccc(Cl)cc3)cc12 (10 µM) 0
COc1ccc(Br)c(C=O)c1O [6-Bromo-2-hydroxy-3-methoxybenzaldehyde] (10 µM) 0
Oc1ccc(-c2cnc3ccc(NCc4ccco4)nn23)cc1 [IRAK inhibitor 2] (2.5 µM) 0
C[C@H](Nc1cc2c(-c3ccc4c(c3)OCO4)noc2cn1)c1ccccc1 (10 µM) 0
Nc1ccc(C(=O)Nc2cccc(-c3nc(N4CCOCC4)c4oc5ncccc5c4n3)c2)cn1 (10 µM) 0
CCOC(=O)c1c(N2CCc3ccc(OC)cc3C2)oc(C=C2C=Nc3ncccc32)c1O (10 µM) 0
Cc1ncc(-c2cc(F)c(O)c(F)c2)cc1-c1cc(F)c(O)c(F)c1 (10 µM) 0
N=C(NC(=N)N1CCCC1)Nc1ccc(OC(F)(F)F)cc1 (10 µM) 0
CC1(C)CN(C(=O)c2ccc(-c3cccc4nc(NC(=O)C5CC5)nn34)cc2)C1 [Solcitinib] (10 µM) 0
COc1c(O)cc(O)c2c(=O)cc(-c3ccccc3)oc12 [Wogonin] (10 µM) 0
O=C(NC[C@H](O)CO)c1ccncc1Nc1ccc(I)cc1F [Pimasertib] (10 µM) 0
N#Cc1cnc(Nc2cc(NC[C@H]3CNCCO3)c(C(F)(F)F)cn2)cn1 (10 µM) 0
CCNC(=O)Nc1ccc(-c2nc3c(c(N4CCOC[C@@H]4C)n2)CCN(C2COC2)C3)cc1 (2.5 µM) 0
COc1cc2ncnc(Nc3cc(Br)c(O)c(Br)c3)c2cc1OC (2.5 µM) 0
Nc1ccc(-c2nc3ccc(-c4nc5ccc(N)cc5[nH]4)cc3[nH]2)cc1 (10 µM) 0
CCCCC(=O)OCC(=O)[C@]1(O)Cc2c(O)c3c(c(O)c2[C@@H](O[C@H]2C[C@H](NC(=O)C(F)(F)F)[C@H](O)[C@H](C)O2)C1)C(=O)c1c(OC)cccc1C3=O [Valrubicin] (10 µM) 0
CCOC(=O)c1c(Nc2ccccc2Cl)oc(/C=C2\C=Nc3ncccc32)c1O (10 µM) 0
Nc1[nH]nc2nnc(-c3c(-c4ccccc4)nn4ccccc34)cc12 (10 µM) 0
COc1cc2nc(NC3CC3)nc(NC3CCN(C(C)C)CC3)c2cc1OC (10 µM) 0
S=C(NCc1ccc2c(c1)OCO2)N1CCN(c2ncnc3c2oc2ccccc23)CC1 [Amuvatinib] (2.5 µM) 0
CC(=O)O[C@@H]1[C@@H](OC(C)=O)[C@@H](O)[C@H](Oc2c(-c3ccc(O)cc3)oc3cc(O)cc(O)c3c2=O)O[C@H]1C (10 µM) 0
CC1=CC(=O)C(C(C)C)=C/C1=N/OC(=O)c1ccccc1C [Poloxin] (2.5 µM) 0
CO[C@@H]1[C@H](N(C)C(=O)c2ccccc2)C[C@H]2O[C@]1(C)n1c3ccccc3c3c4c(c5c6ccccc6n2c5c31)C(=O)NC4 [Midostaurin] (2.5 µM) 0
Fc1ccc(Cl)cc1-c1nc(Nc2ccncc2)c2nccnc2n1 (10 µM) 0
CN1CCC(Nc2ccc(C(=O)Nc3cc(-c4ccc5c(c4)OCO5)[nH]n3)cc2)CC1 (10 µM) 0
CN1CCC(Nc2nc(Nc3ccc(Oc4ccccc4)cc3)c3c(=O)[nH]cc(Br)c3n2)CC1 (2.5 µM) 0
O=C(COc1ccc(Cl)cc1)NC1CCC(NC(=O)COc2ccc(Cl)cc2)CC1 (stereo not drawn) [ISRIB (trans-isomer)] (10 µM) 0
Cc1ccc(C2CC(=O)NC(SCC(=O)Nc3nccs3)=C2C#N)cc1 (centres undefined) [Necrostatin-34] (10 µM) 0
CCCCNc1ncc(C(=O)NCc2ccc(-n3ccnc3)cc2)c(NC2CCC(O)CC2)n1 (centres undefined) (10 µM) 0
O=C1NC(=O)C(Cc2c[nH]c3c(Cl)cccc23)N1 (centres undefined) [Necroptosis-IN-1] (10 µM) 0
O=C1C=CC2=C3c4cc(O)c(O)cc4CC3(O)COC2=C1O (centres undefined) [Hematein] (10 µM) 0
NC(=O)c1cnc(N[C@@H]2CCCC[C@@H]2N)nc1Nc1cccc(-n2nccn2)c1 (2.5 µM) 0
COc1cc2nc(-c3cc(F)ccc3O)nc(N[C@@H]3CNC[C@H]3C(C)(C)O)c2cc1OC (2.5 µM) 0
CN1CCN(Cc2ccc(-c3cn(C4CCC(O)CC4)c4nc(NCCC5CC5)ncc34)cc2)CC1 (centres undefined) (2.5 µM) 0
O=S(=O)(c1ccc(O)cc1O)N1Cc2cc(O)cc(O)c2C1 (10 µM) 0

Arranged by count of non-hydrogen atoms (ascending): some entries from above
kinase-Nluc reporter destabilization hit call, inactive:
CC1=CC(=O)C(C(C)C)=C/C1=N/OC(=O)c1ccccc1C [Poloxin] (2.5 µM) 0
Oc1ccc(-c2cnc3ccc(NCc4ccco4)nn23)cc1 [IRAK inhibitor 2] (2.5 µM) 0
CCOC(=O)c1c(N2CCc3ccc(OC)cc3C2)oc(C=C2C=Nc3ncccc32)c1O (10 µM) 0
